PubChem BioAssay AID2417 (National Center for Advancing Translational Sciences (NCATS), 2010)
Screen size: about 140,000 compounds; about 4,300 (3.1%) were called active. This list was built around the results that the source calls inconclusive (neither active nor inactive); the mix of calls is not that of the screen.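 Rule for the calls: active = readout at or below -70, meaning at least 70% loss of cells showing the perinucleolar compartment, a nuclear body marking cancer cells; inconclusive = readout between -30 and a set limit; inactive = the rest.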

experiment: High Content Assay for Compounds that inhibit the Assembly of the Perinucleolar Compartment; settings: PC3M PTB-GFP, PNC prevalence imaging, 16 h; at 10 µM; hits give low values;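 note: plate controls were DMSO wells for no effect and camptothecin positive control wells for full effect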
Procedure, shortened: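 PC3M cells stably expressing PTB-GFP, 750–1000 cells/well, treated 16 h at 37 °C with compound (23 nl of library stock), in duplicate. After paraformaldehyde fixation and Hoechst stain, imaged at 20x; PNC prevalence scored by image analysis.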

Row | Structure (SMILES) | activity change (PNC), negative = inhibition
1 | O=c1oc2cc(O)ccc2cc1-c1nc2c(s1)CCc1ccccc1-2 | inconclusive: -43.8%
2 | Cc1ccc(NC(=O)C(=O)NCCN2CCN(C(=S)Nc3ccccc3)CC2)cc1 | inconclusive: -67.4%
3 | O=C(Cn1nnc(-c2ccc(Cl)cc2)n1)NC1CCN(Cc2ccccc2)CC1 | inconclusive: -36%
4 | O=C(CSC1=NCCS1)N1CCN(c2ccccc2)CC1 | inactive: -26.1%
5 | CCN(CC)C(=O)c1sc2nc(-c3ccc(OC)cc3)cn2c1C | inactive: 15%
6 | COc1ccc(N=CC2=C(O)CC(C)(C)CC2=O)cc1 | inactive: -22.9%
7 | CCOc1ccc(-n2nc3c(Cl)nnc(C)c3c2C)cc1 | inconclusive: -40%
8 | Cc1ncc(S(=O)(=O)c2ccccc2)c(-c2ccccc2Cl)n1 | inconclusive: -79.3%
9 | CCOC(=O)c1nn(-c2ccccc2)c2nnc(Cc3ccc(Cl)cc3)c(=O)n12 | inactive: -5.85%
10 | Cc1ccc(S(=O)(=O)c2cc(OC(=O)c3ccco3)ccc2OC(=O)c2ccco2)cc1 | inactive: 47.5%
11 | CCN(C(=O)CSc1nnnn1-c1cc(C)ccc1OC)C1CCS(=O)(=O)C1 (stereo not given) | inactive: 21.2%
12 | CCCCC1OC2(C)OC(=N)C1(C#N)C(C#N)(C#N)C2c1ccccc1 (stereo not given) | inactive: 25.4%
13 | Cc1cc(OCCCC(=O)NCCN2C(=O)S/C(=C\c3cccnc3)C2=O)ccc1Cl | inconclusive: -59.9%
14 | Cc1onc(-c2ccccc2)c1C(=O)N1CCCc2ccccc21 | inactive: 2.5%
15 | COc1ccccc1-c1cc(SC)c(C#N)c(=O)o1 | inconclusive: -58.6%
16 | Cc1cc(C)n(C(=O)c2ccc(S(=O)(=O)NCC3CCCO3)cc2)n1 (stereo not given) | inconclusive: -44.2%
17 | COCCNc1nc(N)c([N+](=O)[O-])c(NCCO)n1 | inconclusive: -42.4%
18 | CCN(CC)S(=O)(=O)c1ccc(C(=O)OCn2nnc3ccccc3c2=O)cc1 | inconclusive: -51.1%
19 | O=C(c1cc(-c2ccc(O)cc2)on1)N1CCCc2ccccc21 | inactive: -28.7%
20 | O=C(CCN1C(=O)C2CC=C(Cl)CC2C1=O)Nc1ccccc1O (stereo not given) | inconclusive: -35.6%
21 | CCCN1C(=O)/C(=N\OCC(=O)NC23CC4CC(CC(C4)C2)C3)c2ccccc21 | inactive: -23.8%
22 | Cc1cc(C)cc(N(C(=O)c2cc3ccccc3oc2=O)C2C=CS(=O)(=O)C2)c1 (stereo not given) | inconclusive: -35.3%
23 | Cc1cc(C)nc(NS(=O)(=O)c2ccc(NC(=O)C3(c4ccccc4)CCCC3)cc2)n1 | active: -115%

Row | Structure (SMILES) | activity change (PNC), negative = inhibition
24 | COc1ccc2c(c1)O/C(=C\c1sccc1C)C2=O | inconclusive: -41.8%
25 | CC(C)[C@H](NC(=O)OCc1ccccc1)C(=O)NCc1ccccc1 | inconclusive: -51.3%
26 | C=COCCNC(=O)Nc1ccc(Cl)cc1Cl | inconclusive: -60.1%
27 | O=C(NCCC1=CCCCC1)c1ccc(Br)o1 | inconclusive: -35.7%
28 | O=C(CN1CCC(C(=O)c2ccc(Cl)cc2)CC1)Nc1ccc2c(c1)OCCO2 | inconclusive: -37.8%
29 | Cc1cc(-c2ccccc2C(=O)O)on1 | inconclusive: -30.6%
30 | Cc1ccccc1CSc1nc2n(n1)C(c1cccs1)C1=C(CCCC1=O)N2 (stereo not given) | inconclusive: -32.1%
31 | CCOC(=O)c1c(NC(=S)NC(=O)c2ccc(Cn3cc(Cl)cn3)o2)sc2c1CCC(C)C2 (stereo not given) | inconclusive: -39.7%
32 | Cc1ccc(-c2ccc(C(=O)O)[nH]2)cc1 | inactive: 41.5%
33 | COc1ccc(OCCOCCN2CCc3ccccc3C2)cc1 | inconclusive: -34.5%
34 | COc1ccccc1-n1c(SCC(=O)NC(C)(C)C)nc(O)cc1=O | inactive: 11.6%
35 | CC(CCc1ccccc1)NC(=O)c1ccc(Cl)nc1 (stereo not given) | inconclusive: -40.1%
36 | O=C(CC12CC3CC(CC(C3)C1)C2)N1CCN(S(=O)(=O)c2cccs2)CC1 | inconclusive: -30.8%
37 | COc1ccc(COc2ccsc2C(=O)Nc2ccc(Cl)cc2)cc1 | active: -86%
38 | O=C(CN(Cc1ccccc1)S(=O)(=O)c1ccccc1)N/N=C/c1ccc2c(c1)OCO2 | inactive: 6.82%
39 | Cc1ccc(-n2c(SCc3nc4ccccc4c(=O)[nH]3)nnc2-c2ccccc2O)cc1 | inconclusive: -40.9%
40 | COc1ccc(NCc2nnc(SCc3ccc(Cl)cc3)n2-c2ccccc2)cc1 | inactive: -21.5%
41 | O=C(NC12CC3CC(CC(C3)C1)C2)c1cnccn1 | inconclusive: -64.2%
42 | O=C(CN1CCCCC1)Nc1ccccc1NC(=O)CN1CCCCC1 | inconclusive: -70.5%
43 | CCN(CC)S(=O)(=O)c1ccc2oc(C(=O)N3CCc4ccccc4C3)c(C)c2c1 | inconclusive: -39.1%
44 | O=[N+]([O-])c1ccc(N2CCN(c3ccccc3O)CC2)c(Cl)c1 | inconclusive: -70.8%
45 | Cc1ccc(NC(=S)c2nc3ccccc3s2)cc1 | inactive: 19.3%
46 | CC1(C)CC(=O)C2=C(C1)OC(N)=C(C#N)C2c1ccsc1 (stereo not given) | inconclusive: -64.2%

An excerpt from above in order of molecular weight, descending.
Row | Structure (SMILES) | activity change (PNC), negative = inhibition
31 | CCOC(=O)c1c(NC(=S)NC(=O)c2ccc(Cn3cc(Cl)cn3)o2)sc2c1CCC(C)C2 (stereo not given) | inconclusive: -39.7%
38 | O=C(CN(Cc1ccccc1)S(=O)(=O)c1ccccc1)N/N=C/c1ccc2c(c1)OCO2 | inactive: 6.82%
23 | Cc1cc(C)nc(NS(=O)(=O)c2ccc(NC(=O)C3(c4ccccc4)CCCC3)cc2)n1 | active: -115%
39 | Cc1ccc(-n2c(SCc3nc4ccccc4c(=O)[nH]3)nnc2-c2ccccc2O)cc1 | inconclusive: -40.9%
40 | COc1ccc(NCc2nnc(SCc3ccc(Cl)cc3)n2-c2ccccc2)cc1 | inactive: -21.5%
43 | CCN(CC)S(=O)(=O)c1ccc2oc(C(=O)N3CCc4ccccc4C3)c(C)c2c1 | inconclusive: -39.1%
28 | O=C(CN1CCC(C(=O)c2ccc(Cl)cc2)CC1)Nc1ccc2c(c1)OCCO2 | inconclusive: -37.8%
30 | Cc1ccccc1CSc1nc2n(n1)C(c1cccs1)C1=C(CCCC1=O)N2 (stereo not given) | inconclusive: -32.1%
37 | COc1ccc(COc2ccsc2C(=O)Nc2ccc(Cl)cc2)cc1 | active: -86%
34 | COc1ccccc1-n1c(SCC(=O)NC(C)(C)C)nc(O)cc1=O | inactive: 11.6%
42 | O=C(CN1CCCCC1)Nc1ccccc1NC(=O)CN1CCCCC1 | inconclusive: -70.5%
25 | CC(C)[C@H](NC(=O)OCc1ccccc1)C(=O)NCc1ccccc1 | inconclusive: -51.3%
44 | O=[N+]([O-])c1ccc(N2CCN(c3ccccc3O)CC2)c(Cl)c1 | inconclusive: -70.8%
33 | COc1ccc(OCCOCCN2CCc3ccccc3C2)cc1 | inconclusive: -34.5%
46 | CC1(C)CC(=O)C2=C(C1)OC(N)=C(C#N)C2c1ccsc1 (stereo not given) | inconclusive: -64.2%
27 | O=C(NCCC1=CCCCC1)c1ccc(Br)o1 | inconclusive: -35.7%
35 | CC(CCc1ccccc1)NC(=O)c1ccc(Cl)nc1 (stereo not given) | inconclusive: -40.1%
45 | Cc1ccc(NC(=S)c2nc3ccccc3s2)cc1 | inactive: 19.3%
26 | C=COCCNC(=O)Nc1ccc(Cl)cc1Cl | inconclusive: -60.1%
41 | O=C(NC12CC3CC(CC(C3)C1)C2)c1cnccn1 | inconclusive: -64.2%
29 | Cc1cc(-c2ccccc2C(=O)O)on1 | inconclusive: -30.6%

More compounds

Row | Structure (SMILES) | activity change (PNC), negative = inhibition
47 | CCOc1cc(N2CCOCC2)c(OCC)cc1NC(=O)C1CCCC1 | inconclusive: -49.9%
48 | NNC(=O)/C(=N/Nc1ccccc1)S(=O)(=O)c1ccc(Cl)cc1 | inconclusive: -36%
49 | CC(=O)Nc1ccc(C(=O)N2CCN(C(=O)c3ccco3)CC2)cc1 | inconclusive: -36.7%
50 | Cc1ccccc1C1C(C#N)=C2N=C(N)c3c(sc4c3CCCCC4)N2C2=C1C(=O)CCC2 (stereo not given) | inactive: 34.9%
51 | CCCC(c1nnnn1CC(=O)OCC)N(Cc1cc2c(C)cc(C)cc2[nH]c1=O)C1CCCC1 (stereo not given) | inactive: -1.93%
52 | Cc1noc(C)c1C(=O)NCc1ccco1 | inconclusive: -49%
53 | CC(CNC(=O)c1ccc(C(C)(C)C)cc1)CN(C)C (stereo not given) | inconclusive: -37.6%
54 | Clc1ccccc1-c1nc(N/N=C/c2cccnc2)c2ccccc2n1 | inconclusive: -40.6%
55 | CC(C)c1nnc(NC(=O)c2cccc(-n3cnnn3)c2)s1 | inconclusive: -41.1%
56 | CCCCn1nc2cc(C(=O)NCc3ccco3)ccc2c1OCC | inactive: 66%
57 | O=C(CCl)Nc1ccccc1Sc1ccccc1 | inconclusive: -71.9%
58 | O=C(Nc1cccc(F)c1)NC1CCCCC1 | inconclusive: -35%
59 | N#C/C(=C/N1CCOCC1)c1ccccc1 | inconclusive: -32.1%
60 | CCON1C(=O)CN(C(=O)OC)C1c1ccc(Cl)cc1Cl (stereo not given) | inconclusive: -35.5%
61 | Cc1cc2cc(CNC(=S)Nc3ccc(OC(F)F)cc3)ccc2[nH]1 | inactive: 13.9%
62 | Cc1ccc(NC(=O)C2C(=O)N(C)c3ccccc32)cc1 (stereo not given) | inconclusive: -32.4%
63 | Brc1cccc(OCCn2ccnc2)c1 | inactive: -1.85%
64 | Cc1ccc(/C=C2\CCC3=C2OC(N)=C(C#N)C3c2ccc(C)cc2)cc1 (stereo not given) | inconclusive: -32.7%
65 | Cc1cc(C)nc(SC2CCCCC2NS(=O)(=O)c2ccccc2)n1 (stereo not given) | inactive: 31.8%
66 | COc1cc(C2NC(=S)NC(O)(C(F)(F)F)C2C(=O)c2cccs2)cc(OC)c1O (stereo not given) | inconclusive: -49%
67 | N#Cc1c(SCC(N)=O)nc2c(c1-c1ccc(O)cc1)CCCC2 | inconclusive: -77.4%
68 | Cn1ncc(Br)c1C(=O)OCC(=O)Nc1nc(-c2ccccc2)cs1 | inconclusive: -37.2%
69 | O=C(CN1C(=O)c2ccccc2S1(=O)=O)NC1CC2CCC1C2 (stereo not given) | inconclusive: -34.5%

Row | Structure (SMILES) | activity change (PNC), negative = inhibition
70 | NS(=O)(=O)c1ccc(NS(=O)(=O)c2cccs2)cc1 | inconclusive: -65.7%
71 | COc1ccc(NC(=O)Cc2coc3cc(C)c(C(C)C)cc23)cc1S(=O)(=O)N1CCOCC1 | inconclusive: -36.1%
72 | COC(=O)c1cc(=O)nc2scc(C)n12 | inactive: 26.1%
73 | Cc1cc2c(cc(C(=O)OC(C(=O)NCc3ccco3)C(C)C)n2C)o1 (stereo not given) | inactive: -26%
74 | Cc1ccc(S(=O)(=O)CCc2nnc(N)s2)cc1C | inactive: -2.15%
75 | Cc1nc(N)sc1-c1csc(Nc2ccccc2)n1 | inactive: -13.8%
76 | O=C(NCC(c1cccs1)N1CCOCC1)c1ccccc1NS(=O)(=O)c1ccc(Br)cc1 (stereo not given) | inconclusive: -62.1%
77 | COc1ccc(NC(=O)CCC(=O)OCC(=O)c2ccc(Oc3ccc([N+](=O)[O-])cc3)cc2)cc1 | inconclusive: -40.3%
78 | O=C1NCCN1C(=O)c1ccccc1F | inconclusive: -39.7%
79 | CCOCc1cn(CC(=O)c2ccc(Cl)cc2)c(C)nc1=N | inconclusive: -32.6%
80 | CCn1c(SCC(=O)NCc2ccc(C)cc2)nnc1-c1ccncc1 | inconclusive: -43.3%
81 | COc1ccc(C(=O)NC(=S)N2CCC(C)CC2)cc1 | inactive: -4.96%
82 | Cc1ccc(NC(=O)/C(=C\c2ccc([N+](=O)[O-])cc2)NC(=O)c2ccccc2)cc1 | inactive: -4.73%
83 | COc1ccc(CNC(=O)COC(=O)c2cc(-c3ccc(Cl)s3)nc3ccccc23)cc1 | inconclusive: -42.4%
84 | Cc1ccc(-c2noc(CCC(=O)Nc3cccc(C#N)c3)n2)cc1 | inconclusive: -33.9%
85 | COc1ccc(S(=O)(=O)Nc2nc3ccccc3nc2Nc2ccc3c(c2)OCO3)cc1 | inconclusive: -72.3%
86 | CC(C)c1cccc(C(C)C)c1NC(=O)COc1nncc2ccccc12 | inconclusive: -35.1%
87 | O=C(Nc1ccc(NC(=O)c2cccs2)cn1)c1ccco1 | inconclusive: -31.2%
88 | Cc1cc(/C=C2/NC(=O)NC2=O)c(C)n1-c1sc2c(c1C#N)CCCC2 | inconclusive: -39.9%
89 | Cc1cccc(Oc2cc(NC(=O)Cn3cnc([N+](=O)[O-])n3)cc([N+](=O)[O-])c2)c1 | inconclusive: -39.5%
90 | Cc1ccc(O)c(CNc2nc3ccccc3n2C)c1 | inactive: -1.77%
